PubChem BioAssay AID1259405 | NCATS | 2018
Here is one part, drawn at random, of about 50,000 reagents tested. Over the whole deposit, about 4,000 (8%) got an active call. 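Mouse siRNA library applied to hamster cells; one well for each siRNA.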 The numbers tell different reagents against one gene apart.

- Assay: 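Knock-downs that lift recombinant protein yield in hamster ovary cells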 (primary screen)
- Cell system: Chinese hamster CHO-K1 ovary cells with stable secreted eGFP expression
- Knock-down reagent: single siRNA against mouse genes, 0.8 pmol siRNA per well (2 µl of 400 nM stock)
- Duration: 3 days
- Measured: 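Per-well intracellular GFP measured by laser scanning cytometry, plus viability from ATP luminescence, each relative to plate median of non-targeting control wells, in %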
- Reading the numbers: GFP, % of control: higher = more GFP per well, higher productivity; viability (ATP), % of control: higher = more viable cells (more ATP)
- Active means: 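Called active when intracellular GFP, relative to negative control, is at or above 120%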

The first 3 entries, ahead of the listing:
| target | siRNA no. | GFP, % of control | viability (ATP), % of control | call |
| --- | --- | --- | --- | --- |
| Tex2 | 1 | 51.6 | 74.8 | inactive |
| Tex2 | 2 | 2.77 | 279 | inactive |
| Tex2 | 3 | 190 | 108 | active |

Results, repeating the preview:
| target | siRNA no. | GFP, % of control | viability (ATP), % of control | call |
| --- | --- | --- | --- | --- |
| Tex2 | 1 | 51.6 | 74.8 | inactive |
| Tex2 | 2 | 2.77 | 279 | inactive |
| Tex2 | 3 | 190 | 108 | active |
| Fgfr2 | 1 | 83.4 | 86.3 | inactive |
| 4930590J08Rik | 1 | 75.7 | 79.7 | inactive |
| 4930590J08Rik | 2 | 66.8 | 55 | inactive |
| 4930590J08Rik | 3 | 118 | 127 | inactive |
| Marf1 | 1 | 37.2 | 35.5 | inactive |
| Marf1 | 2 | 67 | 79.3 | inactive |
| Marf1 | 3 | 107 | 98.7 | inactive |
| Gtf3c1 | 1 | 87.7 | 80.6 | inactive |
| Gtf3c1 | 2 | 89.7 | 89.5 | inactive |
| Gtf3c1 | 3 | 90 | 64.9 | inactive |
| Prm1 | 1 | 66.3 | 53 | inactive |
| Prm1 | 2 | 68.1 | 42 | inactive |
| Prm1 | 3 | 59.8 | 69.4 | inactive |
| Rit1 | 1 | 61.3 | 38.3 | inactive |
| Rit1 | 2 | 66.7 | 55.9 | inactive |
| Rit1 | 3 | 57.6 | 60.2 | inactive |
| Ddx1 | 1 | 72.4 | 49.8 | inactive |
| Ddx1 | 2 | 50.1 | 30 | inactive |
| Ddx1 | 3 | 167 | 120 | active |
| Klhl20 | 1 | 70.8 | 81.9 | inactive |
| Klhl20 | 2 | 80.4 | 54.1 | inactive |
| Zfp781a | 1 | 93.3 | 83.2 | inactive |
| Zfp781a | 2 | 64.1 | 59.7 | inactive |
| Zfp781a | 3 | 111 | 98.8 | inactive |
| Atf4 | 1 | 73.2 | 84 | inactive |
| Atf4 | 2 | 102 | 96.7 | inactive |
| Chrdl2 | 1 | 82.9 | 52.9 | inactive |
| Chrdl2 | 2 | 57.3 | 44.2 | inactive |
| Chrdl2 | 3 | 62.4 | 60.1 | inactive |
| Cars1 | 1 | 62.6 | 102 | inactive |
| Cars1 | 2 | 60.7 | 83.2 | inactive |
| Cars1 | 3 | 36.4 | 50.9 | inactive |
